According to patent US20210355178A1:
These are yes or no findings as the source states them, for the method shown. Some binding calls cover weakened binding; strength is not graded here. For some assays here: Tags and fused reporters may be left off the sequences shown. Each block holds one binder with its values, some of them ahead of it.

Sequences of proteins named here, by UniProt entry; tags and fusion partners are left off. A change or cut given only in a name is not applied to a line headed by its entry.
UniProt P01024: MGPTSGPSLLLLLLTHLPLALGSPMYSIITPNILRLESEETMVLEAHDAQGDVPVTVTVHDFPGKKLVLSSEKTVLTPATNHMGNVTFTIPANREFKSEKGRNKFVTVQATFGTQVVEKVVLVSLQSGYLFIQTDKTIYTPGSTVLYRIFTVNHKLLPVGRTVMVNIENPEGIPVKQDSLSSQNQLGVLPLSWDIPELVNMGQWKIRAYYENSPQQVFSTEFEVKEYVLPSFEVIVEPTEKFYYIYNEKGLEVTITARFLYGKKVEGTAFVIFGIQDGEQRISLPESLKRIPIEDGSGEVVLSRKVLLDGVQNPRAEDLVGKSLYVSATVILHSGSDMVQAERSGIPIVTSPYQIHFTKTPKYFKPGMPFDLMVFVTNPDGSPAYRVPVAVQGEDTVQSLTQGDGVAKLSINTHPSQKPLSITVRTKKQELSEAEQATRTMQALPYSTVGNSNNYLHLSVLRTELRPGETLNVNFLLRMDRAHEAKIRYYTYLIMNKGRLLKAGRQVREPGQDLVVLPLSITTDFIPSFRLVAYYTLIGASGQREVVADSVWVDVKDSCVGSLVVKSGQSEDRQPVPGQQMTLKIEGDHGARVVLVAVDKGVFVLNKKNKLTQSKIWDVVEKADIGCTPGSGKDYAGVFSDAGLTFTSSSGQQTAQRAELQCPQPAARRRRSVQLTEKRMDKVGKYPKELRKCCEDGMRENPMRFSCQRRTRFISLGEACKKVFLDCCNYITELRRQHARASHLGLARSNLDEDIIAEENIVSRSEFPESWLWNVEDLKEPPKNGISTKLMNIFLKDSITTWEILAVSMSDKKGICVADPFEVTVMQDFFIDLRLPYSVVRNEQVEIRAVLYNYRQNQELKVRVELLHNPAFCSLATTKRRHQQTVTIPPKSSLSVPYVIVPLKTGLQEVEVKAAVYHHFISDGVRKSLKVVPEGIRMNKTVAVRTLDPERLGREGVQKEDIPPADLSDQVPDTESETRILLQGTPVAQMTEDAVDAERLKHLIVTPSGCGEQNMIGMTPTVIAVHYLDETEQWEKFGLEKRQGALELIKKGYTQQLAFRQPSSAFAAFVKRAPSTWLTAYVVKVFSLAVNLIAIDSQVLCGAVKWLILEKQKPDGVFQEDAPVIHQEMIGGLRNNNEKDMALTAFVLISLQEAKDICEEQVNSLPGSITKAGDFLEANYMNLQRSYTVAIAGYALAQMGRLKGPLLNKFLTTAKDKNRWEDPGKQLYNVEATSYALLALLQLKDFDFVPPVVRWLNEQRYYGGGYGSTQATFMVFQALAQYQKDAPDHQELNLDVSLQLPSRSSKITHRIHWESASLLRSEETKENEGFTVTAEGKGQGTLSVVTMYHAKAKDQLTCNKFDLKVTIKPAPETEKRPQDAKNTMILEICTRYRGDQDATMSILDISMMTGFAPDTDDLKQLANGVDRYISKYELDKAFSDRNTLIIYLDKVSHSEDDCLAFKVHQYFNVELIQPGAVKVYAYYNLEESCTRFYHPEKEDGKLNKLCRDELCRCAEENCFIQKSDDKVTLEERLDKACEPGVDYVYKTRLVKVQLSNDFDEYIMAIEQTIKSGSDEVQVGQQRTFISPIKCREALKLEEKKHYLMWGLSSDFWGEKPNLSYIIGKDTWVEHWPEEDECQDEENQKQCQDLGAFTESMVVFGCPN

Experiments:
complement factor C3b [1] = target: complement factor C3b (UniProt P01024); test: SPR, C3b amine-coupled (4030 RU), 1:1 steady-state affinity fit
complement factor C3b [2] = target: complement factor C3b (UniProt P01024); test: SPR, C3b amine-coupled (4030 RU), analyte in solution

binding (complement factor C3b [1]): binds
B1: miniFH (designed binder)
chain: EDCNELPPRRNTEILTGSWSDQTYPEGTQAIYKCRPGYRSLGNIIMVCRKGEWVALNPLRKCQKRPCGHPGDTPFGTFTLTGGNVFEYGVKAVYTCNEGYQLLGEINYRECDTDGWTNDIPICEVVKCLPVTAPENGKIVSSAMEPDREYHFGQAVRFVCNSGYKIEGDEEMHCSDDGFWSKEKPKCVEISCKSPDVINGSPISQKIIYKENERFQYKCNMGYEYSERGDAVCTESGWRPLPSCEEAGGGGGGGGGGGGGKCGPPPPIDNGDITSFPLSVYAPASSVEYQCQNLYQLEGNKRITCRNGQWSEPPKCLHPCVISREIMENYNIALRWTAKQKLYSRTGESVEFVCKRGYRLSSRSHTLRTTCWDGKLEYPTCAKR

binding (complement factor C3b [2]): binds
B2: miniFH-Fc (Fc fusion)
chain: EDCNELPPRRNTEILTGSWSDQTYPEGTQAIYKCRPGYRSLGNIIMVCRKGEWVALNPLRKCQKRPCGHPGDTPFGTFTLTGGNVFEYGVKAVYTCNEGYQLLGEINYRECDTDGWTNDIPICEVVKCLPVTAPENGKIVSSAMEPDREYHFGQAVRFVCNSGYKIEGDEEMHCSDDGFWSKEKPKCVEISCKSPDVINGSPISQKIIYKENERFQYKCNMGYEYSERGDAVCTESGWRPLPSCEEAGGGGGGGGGGGGGKCGPPPPIDNGDITSFPLSVYAPASSVEYQCQNLYQLEGNKRITCRNGQWSEPPKCLHPCVISREIMENYNIALRWTAKQKLYSRTGESVEFVCKRGYRLSSRSHTLRTTCWDGKLEYPTCAGPGGGGGPGCPAPELLGGPSVFLFPPKPKDTLMISRTPEVTCVVVDVSHEDPEVKFNWYVDGVEVHNAKTKPREEQYQSTYRVVSVLTVLHQDWLNGKEYKCKVSNKALPAPIEKTISKAKGQPREPQVYTLPPSREEMTKNQVSLTCLVKGFYPSDIAVEWESNGQPENNYKTTPPVLDSDGSFFLYSKLTVDKSRWQQGNVFSCSVMHEALHNHYTQKSLSLSPGGGGGGG
